The list shows a part of the results.
How the values were obtained:
Assay in all cases: log2 fold change, soluble protein after heating vs DMSO (PISA); higher = thermal stabilisation; K562 cells, 10 uM, 30 min; active = over 0.2 and 3.5 SD of the protein, either way, in both replicates (recomputed)
bafetinib = compound: Cc1ccc(NC(=O)c2ccc(CN3CC[C@H](N(C)C)C3)c(C(F)(F)F)c2)cc1Nc1nccc(-c2cncnc2)n1 [bafetinib]
Method in brief: (§1)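 K562 cells (2×10^6 cells/mL) were treated with 10 μM compound for 30 min, and aliquots were heated for 3 min over 48°C-58°C. Pooled aliquots were extracted in PBS with 0.5% NP-40 at 4°C, and the supernatant after 21,000xg for 90 min was measured by TMTpro 16plex LC-MS/MS with channel sums equalised. Reported thermal stability, relative to control samples and from duplicates, is a log2 fold change.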

Chains of the proteins cited; added tags and fusions are not shown. Lines headed by an entry give the natural chain unless they say otherwise; changes in a name come on top.
UniProt O43837: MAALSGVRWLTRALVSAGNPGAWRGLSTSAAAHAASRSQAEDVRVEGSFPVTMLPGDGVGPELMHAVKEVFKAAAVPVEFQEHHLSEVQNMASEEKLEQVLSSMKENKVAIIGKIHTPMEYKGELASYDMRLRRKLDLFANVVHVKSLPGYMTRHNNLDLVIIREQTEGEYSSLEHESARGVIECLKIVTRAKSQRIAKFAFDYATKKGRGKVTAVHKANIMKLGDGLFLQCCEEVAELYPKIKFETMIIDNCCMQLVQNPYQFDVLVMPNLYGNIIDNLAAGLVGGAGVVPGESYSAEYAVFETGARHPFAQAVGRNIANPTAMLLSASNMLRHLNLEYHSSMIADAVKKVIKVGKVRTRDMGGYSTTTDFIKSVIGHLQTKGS
UniProt Q9NVM9, whole entry, looked up: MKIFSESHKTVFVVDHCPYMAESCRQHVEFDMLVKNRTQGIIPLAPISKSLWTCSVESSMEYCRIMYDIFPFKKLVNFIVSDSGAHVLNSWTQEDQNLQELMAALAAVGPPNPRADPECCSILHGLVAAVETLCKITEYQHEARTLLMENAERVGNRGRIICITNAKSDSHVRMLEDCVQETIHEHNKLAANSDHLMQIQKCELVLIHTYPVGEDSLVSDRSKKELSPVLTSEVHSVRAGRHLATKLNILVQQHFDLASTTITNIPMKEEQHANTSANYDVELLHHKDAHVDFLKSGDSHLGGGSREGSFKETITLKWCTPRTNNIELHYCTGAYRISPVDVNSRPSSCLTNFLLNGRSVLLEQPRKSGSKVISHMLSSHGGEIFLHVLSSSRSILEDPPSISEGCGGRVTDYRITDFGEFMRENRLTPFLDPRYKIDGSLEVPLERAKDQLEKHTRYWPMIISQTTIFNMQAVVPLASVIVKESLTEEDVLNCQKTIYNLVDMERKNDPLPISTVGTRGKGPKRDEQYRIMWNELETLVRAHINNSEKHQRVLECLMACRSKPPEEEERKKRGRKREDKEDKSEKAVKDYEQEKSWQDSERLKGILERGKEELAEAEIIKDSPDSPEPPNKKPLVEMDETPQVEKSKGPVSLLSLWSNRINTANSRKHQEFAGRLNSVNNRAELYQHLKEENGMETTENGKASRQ
UniProt Q96LB3: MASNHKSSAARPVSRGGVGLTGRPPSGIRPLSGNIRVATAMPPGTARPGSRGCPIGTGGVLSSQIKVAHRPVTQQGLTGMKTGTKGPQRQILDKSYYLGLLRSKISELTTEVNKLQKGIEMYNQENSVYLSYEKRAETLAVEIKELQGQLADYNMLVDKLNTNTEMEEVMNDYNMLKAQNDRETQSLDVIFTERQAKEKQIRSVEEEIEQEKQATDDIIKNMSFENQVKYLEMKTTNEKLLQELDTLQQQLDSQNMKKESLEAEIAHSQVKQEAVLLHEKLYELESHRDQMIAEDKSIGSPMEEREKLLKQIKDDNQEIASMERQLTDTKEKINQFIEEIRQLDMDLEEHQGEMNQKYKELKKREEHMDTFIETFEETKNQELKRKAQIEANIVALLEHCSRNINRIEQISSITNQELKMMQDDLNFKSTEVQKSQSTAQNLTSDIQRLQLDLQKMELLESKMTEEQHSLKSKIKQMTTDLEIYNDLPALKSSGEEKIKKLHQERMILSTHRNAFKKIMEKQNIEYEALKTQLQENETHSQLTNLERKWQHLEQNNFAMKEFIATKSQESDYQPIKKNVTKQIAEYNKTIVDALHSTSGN
UniProt O75054: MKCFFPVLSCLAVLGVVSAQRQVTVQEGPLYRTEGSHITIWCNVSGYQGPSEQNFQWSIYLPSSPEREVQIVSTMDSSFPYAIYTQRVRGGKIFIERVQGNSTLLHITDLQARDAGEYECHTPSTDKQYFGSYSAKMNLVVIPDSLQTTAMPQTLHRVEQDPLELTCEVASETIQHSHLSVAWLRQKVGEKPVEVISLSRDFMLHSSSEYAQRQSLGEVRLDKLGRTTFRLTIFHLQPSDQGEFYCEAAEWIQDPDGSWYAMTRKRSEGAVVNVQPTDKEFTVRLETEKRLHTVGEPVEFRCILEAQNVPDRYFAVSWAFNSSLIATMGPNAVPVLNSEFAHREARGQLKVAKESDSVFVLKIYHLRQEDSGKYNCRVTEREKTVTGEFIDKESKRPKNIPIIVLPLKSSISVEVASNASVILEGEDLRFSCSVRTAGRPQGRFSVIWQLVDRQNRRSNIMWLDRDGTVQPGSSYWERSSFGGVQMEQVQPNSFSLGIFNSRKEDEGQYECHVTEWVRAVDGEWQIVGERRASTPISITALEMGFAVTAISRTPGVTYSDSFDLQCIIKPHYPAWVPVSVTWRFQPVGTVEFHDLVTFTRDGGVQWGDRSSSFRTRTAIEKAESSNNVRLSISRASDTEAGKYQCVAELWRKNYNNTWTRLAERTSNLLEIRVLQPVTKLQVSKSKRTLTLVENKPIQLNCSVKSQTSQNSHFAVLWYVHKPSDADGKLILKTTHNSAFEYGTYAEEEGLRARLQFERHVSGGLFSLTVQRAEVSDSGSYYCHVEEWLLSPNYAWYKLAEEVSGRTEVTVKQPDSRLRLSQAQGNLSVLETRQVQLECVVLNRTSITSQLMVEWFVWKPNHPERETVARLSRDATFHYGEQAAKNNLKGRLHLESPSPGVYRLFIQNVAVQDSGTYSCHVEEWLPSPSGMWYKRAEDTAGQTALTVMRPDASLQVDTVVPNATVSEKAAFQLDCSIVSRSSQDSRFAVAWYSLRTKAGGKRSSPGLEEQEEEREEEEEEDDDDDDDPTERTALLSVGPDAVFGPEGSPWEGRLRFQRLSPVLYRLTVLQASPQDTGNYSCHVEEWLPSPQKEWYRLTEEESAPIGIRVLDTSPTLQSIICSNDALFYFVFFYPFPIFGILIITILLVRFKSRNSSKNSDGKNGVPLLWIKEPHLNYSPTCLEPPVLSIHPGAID
UniProt P49441: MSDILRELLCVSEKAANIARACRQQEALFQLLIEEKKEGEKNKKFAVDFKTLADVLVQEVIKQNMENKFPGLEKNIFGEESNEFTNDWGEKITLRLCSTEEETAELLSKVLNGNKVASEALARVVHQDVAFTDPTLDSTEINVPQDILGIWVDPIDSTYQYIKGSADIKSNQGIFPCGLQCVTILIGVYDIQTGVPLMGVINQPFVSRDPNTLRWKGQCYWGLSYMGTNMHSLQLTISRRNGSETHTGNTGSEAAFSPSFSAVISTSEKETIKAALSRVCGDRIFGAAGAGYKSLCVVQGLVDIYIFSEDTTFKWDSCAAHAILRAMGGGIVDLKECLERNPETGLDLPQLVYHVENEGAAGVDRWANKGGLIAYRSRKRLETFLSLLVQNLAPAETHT
UniProt P15260: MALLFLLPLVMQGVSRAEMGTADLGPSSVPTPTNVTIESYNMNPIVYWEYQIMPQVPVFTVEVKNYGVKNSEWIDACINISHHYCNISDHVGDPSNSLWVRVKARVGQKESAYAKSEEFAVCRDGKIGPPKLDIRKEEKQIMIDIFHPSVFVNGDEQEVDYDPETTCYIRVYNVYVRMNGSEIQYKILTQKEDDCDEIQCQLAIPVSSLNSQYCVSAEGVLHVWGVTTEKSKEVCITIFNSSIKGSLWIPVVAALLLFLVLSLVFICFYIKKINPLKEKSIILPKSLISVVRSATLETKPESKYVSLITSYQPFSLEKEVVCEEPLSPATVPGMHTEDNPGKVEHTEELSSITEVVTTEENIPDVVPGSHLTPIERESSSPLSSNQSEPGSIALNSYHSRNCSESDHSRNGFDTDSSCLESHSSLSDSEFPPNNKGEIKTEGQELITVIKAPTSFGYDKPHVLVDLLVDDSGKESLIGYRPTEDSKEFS
UniProt Q06033: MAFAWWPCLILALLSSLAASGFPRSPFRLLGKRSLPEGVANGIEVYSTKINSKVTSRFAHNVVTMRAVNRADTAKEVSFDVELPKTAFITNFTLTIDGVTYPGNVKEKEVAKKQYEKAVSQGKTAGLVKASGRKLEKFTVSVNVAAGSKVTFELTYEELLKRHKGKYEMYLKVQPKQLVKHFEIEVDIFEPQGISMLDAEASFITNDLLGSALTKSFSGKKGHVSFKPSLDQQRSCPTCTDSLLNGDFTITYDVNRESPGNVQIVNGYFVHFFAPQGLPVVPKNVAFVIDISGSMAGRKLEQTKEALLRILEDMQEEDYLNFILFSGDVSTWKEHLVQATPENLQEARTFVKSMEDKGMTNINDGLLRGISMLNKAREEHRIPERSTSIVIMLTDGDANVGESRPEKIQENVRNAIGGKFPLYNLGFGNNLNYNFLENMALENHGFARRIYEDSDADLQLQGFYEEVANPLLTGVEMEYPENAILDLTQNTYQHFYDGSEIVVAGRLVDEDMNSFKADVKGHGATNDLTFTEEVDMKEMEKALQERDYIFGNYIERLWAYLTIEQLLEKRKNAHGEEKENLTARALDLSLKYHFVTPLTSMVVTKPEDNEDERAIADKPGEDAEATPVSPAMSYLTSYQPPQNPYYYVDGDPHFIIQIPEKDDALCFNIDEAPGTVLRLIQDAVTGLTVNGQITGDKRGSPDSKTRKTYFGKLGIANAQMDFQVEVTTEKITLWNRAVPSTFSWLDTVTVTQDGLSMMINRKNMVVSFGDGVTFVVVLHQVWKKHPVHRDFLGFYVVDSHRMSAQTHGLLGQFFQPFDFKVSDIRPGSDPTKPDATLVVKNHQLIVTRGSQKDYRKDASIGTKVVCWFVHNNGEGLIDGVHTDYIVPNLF
UniProt Q9H1B7, whole entry, looked up: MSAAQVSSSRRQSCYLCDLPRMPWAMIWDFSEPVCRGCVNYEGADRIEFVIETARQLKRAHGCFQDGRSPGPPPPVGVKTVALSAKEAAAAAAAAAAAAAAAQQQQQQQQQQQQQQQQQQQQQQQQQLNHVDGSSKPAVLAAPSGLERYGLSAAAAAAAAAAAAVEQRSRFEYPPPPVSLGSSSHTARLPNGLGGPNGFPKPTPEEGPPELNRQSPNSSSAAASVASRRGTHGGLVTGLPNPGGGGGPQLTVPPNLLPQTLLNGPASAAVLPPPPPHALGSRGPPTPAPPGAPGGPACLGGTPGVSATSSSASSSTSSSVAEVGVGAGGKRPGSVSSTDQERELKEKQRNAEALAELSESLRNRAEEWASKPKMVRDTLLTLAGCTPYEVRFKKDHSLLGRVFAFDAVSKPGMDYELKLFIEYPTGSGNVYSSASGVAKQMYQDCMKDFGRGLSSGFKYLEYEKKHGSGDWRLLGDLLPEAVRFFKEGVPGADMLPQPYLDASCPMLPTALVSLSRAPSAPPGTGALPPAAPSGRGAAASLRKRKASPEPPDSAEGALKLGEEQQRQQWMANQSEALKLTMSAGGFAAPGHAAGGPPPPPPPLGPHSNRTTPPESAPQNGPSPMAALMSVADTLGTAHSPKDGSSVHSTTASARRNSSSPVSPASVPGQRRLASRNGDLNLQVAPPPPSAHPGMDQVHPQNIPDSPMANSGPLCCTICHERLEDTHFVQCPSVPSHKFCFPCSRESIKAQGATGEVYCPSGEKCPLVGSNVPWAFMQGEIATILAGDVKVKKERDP
UniProt P19823: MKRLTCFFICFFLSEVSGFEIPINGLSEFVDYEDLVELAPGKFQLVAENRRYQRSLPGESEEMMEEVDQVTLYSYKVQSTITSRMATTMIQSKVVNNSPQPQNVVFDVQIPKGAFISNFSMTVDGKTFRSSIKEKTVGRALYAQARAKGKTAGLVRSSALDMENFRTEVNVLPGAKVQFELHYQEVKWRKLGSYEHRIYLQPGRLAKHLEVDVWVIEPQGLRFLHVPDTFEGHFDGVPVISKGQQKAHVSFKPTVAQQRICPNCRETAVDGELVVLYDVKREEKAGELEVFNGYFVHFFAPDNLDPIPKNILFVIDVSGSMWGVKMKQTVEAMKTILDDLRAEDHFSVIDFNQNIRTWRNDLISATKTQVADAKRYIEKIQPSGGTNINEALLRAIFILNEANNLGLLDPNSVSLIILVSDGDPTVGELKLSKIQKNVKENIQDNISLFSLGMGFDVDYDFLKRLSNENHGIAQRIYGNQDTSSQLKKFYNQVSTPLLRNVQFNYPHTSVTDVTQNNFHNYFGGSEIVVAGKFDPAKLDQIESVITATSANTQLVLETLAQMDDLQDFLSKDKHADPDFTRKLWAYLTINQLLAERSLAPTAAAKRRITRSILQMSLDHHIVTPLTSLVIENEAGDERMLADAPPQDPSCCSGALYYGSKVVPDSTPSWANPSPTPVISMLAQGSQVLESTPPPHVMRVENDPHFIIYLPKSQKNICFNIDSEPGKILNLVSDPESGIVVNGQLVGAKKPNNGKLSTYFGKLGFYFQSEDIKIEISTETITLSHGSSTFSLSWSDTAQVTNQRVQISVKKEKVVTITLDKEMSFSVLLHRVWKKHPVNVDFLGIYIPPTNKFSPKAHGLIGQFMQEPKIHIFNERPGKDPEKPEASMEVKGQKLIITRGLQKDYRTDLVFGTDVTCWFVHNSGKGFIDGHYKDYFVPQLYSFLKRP

[1] = compound: Cc1cccc(CC(=O)N2CCc3c2ccc(-c2cn(C)c4ncnc(N)c24)c3F)n1
Method in brief: as §1

nilotinib = compound: Cc1cn(-c2cc(NC(=O)c3ccc(C)c(Nc4nccc(-c5cccnc5)n4)c3)cc(C(F)(F)F)c2)cn1 [nilotinib]
Method in brief: as §1

[2] = compound: Cc1nc(Nc2n[nH]c3c2CN(C(=O)N[C@H](CN(C)C)c2ccccc2)C3(C)C)c2sccc2n1
Method in brief: as §1

dasatinib = compound: Cc1nc(Nc2ncc(C(=O)Nc3c(C)cccc3Cl)s2)cc(N2CCN(CCO)CC2)n1 [dasatinib]
Method in brief: as §1

[3] = compound: Cc1ncc(-c2ccnc(Nc3ccc(S(C)(=O)=O)cc3)n2)n1C(C)C
Method in brief: as §1

[4] = compound: Cn1cc(-c2ccc3c(c2)CCN3C(=O)Cc2cccc(C(F)(F)F)c2)c2c(N)ncnc21
Method in brief: as §1

[5] = compound: Cn1cc(-c2ccc3nnc(C(F)(F)c4ccc5ncccc5c4)n3n2)cn1
Method in brief: as §1

tipifarnib = compound: Cn1cncc1[C@@](N)(c1ccc(Cl)cc1)c1ccc2c(c1)c(-c1cccc(Cl)c1)cc(=O)n2C [tipifarnib]
Method in brief: as §1

mubritinib = compound: FC(F)(F)c1ccc(/C=C/c2nc(COc3ccc(CCCCn4ccnn4)cc3)co2)cc1 [mubritinib]
Method in brief: as §1

[6] = compound: NC(=O)Nc1cc(-c2cccc(F)c2)sc1C(=O)N[C@H]1CCCNC1
Method in brief: as §1

[7] = compound: NC(=O)c1cnc(N[C@@H]2CCCC[C@@H]2N)nc1Nc1cccc(-n2nccn2)c1
Method in brief: as §1

[8] = compound: NC1(c2ccc(-c3nc4ccn5c(=O)[nH]nc5c4cc3-c3ccccc3)cc2)CCC1
Method in brief: as §1

[9] = compound: NCC(=O)Nc1ccc(-n2nc(C(F)(F)F)cc2-c2ccc3c(ccc4ccccc43)c2)cc1
Method in brief: as §1

entinostat = compound: Nc1ccccc1NC(=O)c1ccc(CNC(=O)OCc2cccnc2)cc1 [entinostat]
Method in brief: as §1

vorinostat = compound: O=C(CCCCCCC(=O)Nc1ccccc1)NO [vorinostat]
Method in brief: as §1

citarinostat = compound: O=C(CCCCCCNC(=O)c1cnc(N(c2ccccc2)c2ccccc2Cl)nc1)NO [citarinostat]
Method in brief: as §1

silmitasertib = compound: O=C(O)c1ccc2c(c1)nc(Nc1cccc(Cl)c1)c1ccncc12 [silmitasertib]
Method in brief: as §1

[10] = compound: O=C1NC(=O)C(c2cnc3ccccn23)=C1c1cn2c3c(cc(F)cc13)CN(C(=O)N1CCCCC1)CC2
Method in brief: as §1

[11] = compound: c1cc(OCCN2CCCCC2)cc(-c2n[nH]c3ccc(-c4nnc[nH]4)cc23)c1
Method in brief: as §1

Measured: log2 fold change

IGF2BP1 (UniProt Q9NZI8)
inactive: bafetinib 0.217 | [1] 0.015 | nilotinib -0.08 | [2] -0.496 | dasatinib 0.021 | [3] -0.088 | [4] -0.334 | [5] -0.243 | tipifarnib 0.131 | mubritinib -0.265 | [6] -0.061 | [7] -0.019 | [8] 0.261 | [9] 0.081 | entinostat 0.027 | vorinostat 0.095 | citarinostat 0.058 | silmitasertib 0.274 | [10] 0.246 | [11] -0.122

IMPAD1 (UniProt Q9NX62)
inactive: bafetinib 0.009 | [1] -0.029 | nilotinib -0.018 | [2] -0.037 | dasatinib 0.016 | [3] -0.006 | [4] 0.017 | [5] -0.11 | tipifarnib 0.013 | mubritinib -0.016 | [6] -0.036 | [7] -0.006 | [8] -0.021 | [9] -0.03 | entinostat -0.031 | vorinostat -0.072 | citarinostat -0.011 | silmitasertib -0.011 | [10] -0.018 | [11] -0.042

IDH3B (UniProt O43837)
inactive: bafetinib 0.012 | [1] 0.057 | nilotinib -0.061 | [2] 0.017 | dasatinib -0.007 | [3] -0.032 | [4] 0.039 | [5] 0.004 | tipifarnib -0.045 | mubritinib 0.054 | [6] -0.097 | [7] -0.006 | [8] -0.05 | [9] 0.007 | entinostat -0.006 | vorinostat -0.018 | citarinostat 0.023 | silmitasertib -0.032 | [10] -0.082 | [11] 0.014

INTS13 (UniProt Q9NVM9)
inactive: bafetinib -0.034 | [1] 0 | nilotinib -0.062 | [2] -0.082 | dasatinib -0.178 | [3] -0.069 | [4] 0.072 | [5] 0.129 | tipifarnib -0.048 | mubritinib 0.094 | [6] -0.032 | [7] 0.012 | [8] -0.161 | [9] -0.015 | entinostat 0.047 | vorinostat 0.046 | citarinostat 0.081 | silmitasertib -0.024 | [10] -0.072 | [11] -0.028

ITPK1 (UniProt Q13572)
inactive: bafetinib -0.071 | [1] 0.019 | nilotinib -0.024 | [2] 0.093 | dasatinib -0.073 | [3] -0.019 | [4] 0.106 | [5] -0.009 | tipifarnib 0.052 | mubritinib 0.076 | [6] 0.018 | [7] -0.015 | [8] -0.163 | [9] -0.003 | entinostat 0.007 | vorinostat 0.056 | citarinostat 0.087 | silmitasertib 0.025 | [10] -0.061 | [11] 0.048

IFT74 (UniProt Q96LB3)
inactive: bafetinib -0.095 | [1] 0.015 | nilotinib 0.166 | [2] 0.063 | dasatinib 0.057 | [3] 0.008 | [4] 0.015 | [5] -0.053 | tipifarnib -0.052 | mubritinib 0.186 | [6] 0.035 | [7] 0.009 | [8] 0.135 | [9] 0.045 | entinostat -0.091 | vorinostat 0.101 | citarinostat 0.171 | silmitasertib -0.187 | [10] -0.021 | [11] 0.06

IGSF3 (UniProt O75054)
inactive: bafetinib -0.061 | [1] -0.062 | nilotinib -0.026 | [2] -0.004 | dasatinib -0.027 | [3] -0.021 | [4] -0.03 | [5] -0.035 | tipifarnib 0.094 | mubritinib 0.015 | [6] -0.126 | [7] 0.069 | [8] -0.025 | [9] 0.032 | entinostat -0.036 | vorinostat -0.037 | citarinostat 0.017 | silmitasertib -0.01 | [10] -0.019 | [11] 0.069

INPP1 (UniProt P49441)
inactive: bafetinib 0.003 | [1] 0.094 | nilotinib -0.001 | [2] 0.067 | dasatinib 0.027 | [3] 0.053 | [4] 0.037 | [5] 0.027 | tipifarnib -0.135 | mubritinib 0.15 | [6] -0.11 | [7] -0.035 | [8] -0.108 | [9] -0.036 | entinostat -0.089 | vorinostat -0.066 | citarinostat 0.024 | silmitasertib -0.042 | [10] 0.023 | [11] -0.039

ILF3 isoform 7 (UniProt Q12906)
inactive: bafetinib 0.082 | [1] -0.028 | nilotinib -0.02 | [2] 0.244 | dasatinib 0.155 | [3] 0.297 | [4] -0.179 | [5] -0.089 | tipifarnib 0.057 | mubritinib -0.031 | [6] -0.056 | [7] 0.055 | [8] 0.17 | [9] 0.107 | entinostat -0.083 | vorinostat -0.052 | citarinostat -0.053 | silmitasertib 0.189 | [10] 0.32 | [11] -0.105

ISYNA1 (UniProt Q9NPH2)
inactive: bafetinib 0.116 | [1] -0.029 | nilotinib 0.067 | [2] -0.066 | dasatinib 0.021 | [3] 0.023 | [4] 0.009 | [5] 0.01 | tipifarnib 0.013 | mubritinib -0.011 | [6] -0.031 | [7] 0.04 | [8] 0.014 | [9] 0.034 | entinostat 0.001 | vorinostat -0.022 | citarinostat 0.161 | silmitasertib -0.017 | [10] -0.032 | [11] 0.064

Taken from the results shown (four entries):
IGSF3 (UniProt O75054)
inactive: bafetinib -0.061 | [1] -0.062 | nilotinib -0.026 | [2] -0.004 | dasatinib -0.027 | [3] -0.021 | [4] -0.03 | [5] -0.035 | tipifarnib 0.094 | mubritinib 0.015 | [6] -0.126 | [7] 0.069 | [8] -0.025 | [9] 0.032 | entinostat -0.036 | vorinostat -0.037 | citarinostat 0.017 | silmitasertib -0.01 | [10] -0.019 | [11] 0.069

INPP1 (UniProt P49441)
inactive: bafetinib 0.003 | [1] 0.094 | nilotinib -0.001 | [2] 0.067 | dasatinib 0.027 | [3] 0.053 | [4] 0.037 | [5] 0.027 | tipifarnib -0.135 | mubritinib 0.15 | [6] -0.11 | [7] -0.035 | [8] -0.108 | [9] -0.036 | entinostat -0.089 | vorinostat -0.066 | citarinostat 0.024 | silmitasertib -0.042 | [10] 0.023 | [11] -0.039

ILF3 isoform 7 (UniProt Q12906)
inactive: bafetinib 0.082 | [1] -0.028 | nilotinib -0.02 | [2] 0.244 | dasatinib 0.155 | [3] 0.297 | [4] -0.179 | [5] -0.089 | tipifarnib 0.057 | mubritinib -0.031 | [6] -0.056 | [7] 0.055 | [8] 0.17 | [9] 0.107 | entinostat -0.083 | vorinostat -0.052 | citarinostat -0.053 | silmitasertib 0.189 | [10] 0.32 | [11] -0.105

ISYNA1 (UniProt Q9NPH2)
inactive: bafetinib 0.116 | [1] -0.029 | nilotinib 0.067 | [2] -0.066 | dasatinib 0.021 | [3] 0.023 | [4] 0.009 | [5] 0.01 | tipifarnib 0.013 | mubritinib -0.011 | [6] -0.031 | [7] 0.04 | [8] 0.014 | [9] 0.034 | entinostat 0.001 | vorinostat -0.022 | citarinostat 0.161 | silmitasertib -0.017 | [10] -0.032 | [11] 0.064

Continuation:

IKBIP (UniProt Q70UQ0)
inactive: bafetinib -0.014 | [1] -0.008 | nilotinib -0.033 | [2] -0.062 | dasatinib 0.026 | [3] -0.107 | [4] 0.02 | [5] 0.024 | tipifarnib 0.059 | mubritinib -0.018 | [6] -0.002 | [7] -0.071 | [8] 0.007 | [9] 0.011 | entinostat -0.072 | vorinostat -0.029 | citarinostat -0.015 | silmitasertib 0.026 | [10] 0.042 | [11] -0.079

IFNGR1 (UniProt P15260)
inactive: bafetinib -0.262 | [1] -0.027 | nilotinib 0.075 | [2] -0.015 | dasatinib 0.154 | [3] -0.126 | [4] 0.123 | [5] -0.123 | tipifarnib 0.119 | mubritinib 0.299 | [6] -0.116 | [7] -0.068 | [8] 0.27 | [9] 0.051 | entinostat -0.123 | vorinostat 0.058 | citarinostat 0.014 | silmitasertib 0.055 | [10] -0.118 | [11] -0.086

ITIH3 (UniProt Q06033)
inactive: bafetinib -0.102 | [1] -0.075 | nilotinib -0.027 | [2] 0.095 | dasatinib 0.057 | [3] 0.252 | [4] 0.321 | [5] -0.056 | tipifarnib 0.041 | mubritinib -0.202 | [6] -0.067 | [7] 0.004 | [8] 0.109 | [9] 0.082 | entinostat 0.004 | vorinostat 0.093 | citarinostat -0.016 | silmitasertib 0.102 | [10] 0.057 | [11] 0.317

IDH3A (UniProt P50213)
inactive: bafetinib -0.016 | [1] 0.021 | nilotinib -0.027 | [2] -0.006 | dasatinib -0.005 | [3] -0.024 | [4] 0.045 | [5] 0.021 | tipifarnib -0.001 | mubritinib 0.06 | [6] 0 | [7] -0.033 | [8] -0.062 | [9] -0.005 | entinostat -0.025 | vorinostat -0.029 | citarinostat 0.023 | silmitasertib -0.034 | [10] -0.021 | [11] 0.011

IRF2BPL (UniProt Q9H1B7)
active: [10] -0.218
inactive: bafetinib -0.038 | [1] 0.012 | nilotinib -0.07 | [2] -0.034 | dasatinib -0.034 | [3] -0.029 | [4] 0.083 | [5] -0.084 | tipifarnib -0.067 | mubritinib -0.055 | [6] 0.032 | [7] 0.011 | [8] 0.013 | [9] -0.004 | entinostat -0.024 | vorinostat 0.007 | citarinostat -0.001 | silmitasertib 0.027 | [11] -0.03

ITIH2 (UniProt P19823)
inactive: bafetinib -0.104 | [1] -0.097 | nilotinib 0.093 | [2] 0.016 | dasatinib 0.127 | [3] 0.41 | [4] 0.254 | [5] -0.164 | tipifarnib 0.049 | mubritinib -0.335 | [6] -0.115 | [7] 0.016 | [8] 0.148 | [9] 0.035 | entinostat -0.005 | vorinostat 0.003 | citarinostat -0.01 | silmitasertib 0.122 | [10] 0.095 | [11] 0.583

— the supplement of paper PMC10849652
